This passage reports binding results from article PMC3591265.

Results are given in words; binding and its absence hold for the method and conditions named. Tags and fused reporters may be left off the sequences shown.

Holding throughout (experiment): two-hybrid; E. coli two-hybrid (BacterioMatch II, Agilent); bait pBT and target pTRG co-transformed; selective medium with 3-AT, dual selective medium with 3-AT and streptomycin
Assay [1] addresses T1, OsCLF (E. coli two-hybrid fusion) (Oryza sativa) (UniProt Q5VN06).
T1 sequence: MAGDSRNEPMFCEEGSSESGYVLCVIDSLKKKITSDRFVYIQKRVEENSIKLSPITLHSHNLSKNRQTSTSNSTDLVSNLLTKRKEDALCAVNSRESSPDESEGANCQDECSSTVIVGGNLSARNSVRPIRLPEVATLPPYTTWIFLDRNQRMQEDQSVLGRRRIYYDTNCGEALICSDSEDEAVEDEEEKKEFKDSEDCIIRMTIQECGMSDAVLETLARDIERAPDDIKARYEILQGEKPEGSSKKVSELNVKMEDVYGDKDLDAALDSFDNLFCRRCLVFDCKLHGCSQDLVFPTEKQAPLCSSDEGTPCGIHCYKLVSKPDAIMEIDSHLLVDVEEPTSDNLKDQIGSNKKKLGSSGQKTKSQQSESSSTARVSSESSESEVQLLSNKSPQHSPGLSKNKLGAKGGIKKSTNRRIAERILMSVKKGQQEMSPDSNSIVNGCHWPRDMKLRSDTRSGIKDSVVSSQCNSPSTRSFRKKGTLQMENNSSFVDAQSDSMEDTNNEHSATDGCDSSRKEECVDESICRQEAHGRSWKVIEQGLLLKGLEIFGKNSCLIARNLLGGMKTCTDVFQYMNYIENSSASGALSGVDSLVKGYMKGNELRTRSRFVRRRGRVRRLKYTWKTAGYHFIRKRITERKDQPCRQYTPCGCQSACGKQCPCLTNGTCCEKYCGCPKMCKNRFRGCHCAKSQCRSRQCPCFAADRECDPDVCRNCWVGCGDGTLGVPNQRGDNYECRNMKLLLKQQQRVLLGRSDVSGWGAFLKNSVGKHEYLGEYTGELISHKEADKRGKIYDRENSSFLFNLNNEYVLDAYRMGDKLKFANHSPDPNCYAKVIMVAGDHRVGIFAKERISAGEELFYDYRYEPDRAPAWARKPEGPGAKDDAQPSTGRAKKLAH

Assay [2] concerns the target T2, OsSET1 (E. coli two-hybrid fusion) (Oryza sativa) (UniProt Q10MI4).
T2 sequence: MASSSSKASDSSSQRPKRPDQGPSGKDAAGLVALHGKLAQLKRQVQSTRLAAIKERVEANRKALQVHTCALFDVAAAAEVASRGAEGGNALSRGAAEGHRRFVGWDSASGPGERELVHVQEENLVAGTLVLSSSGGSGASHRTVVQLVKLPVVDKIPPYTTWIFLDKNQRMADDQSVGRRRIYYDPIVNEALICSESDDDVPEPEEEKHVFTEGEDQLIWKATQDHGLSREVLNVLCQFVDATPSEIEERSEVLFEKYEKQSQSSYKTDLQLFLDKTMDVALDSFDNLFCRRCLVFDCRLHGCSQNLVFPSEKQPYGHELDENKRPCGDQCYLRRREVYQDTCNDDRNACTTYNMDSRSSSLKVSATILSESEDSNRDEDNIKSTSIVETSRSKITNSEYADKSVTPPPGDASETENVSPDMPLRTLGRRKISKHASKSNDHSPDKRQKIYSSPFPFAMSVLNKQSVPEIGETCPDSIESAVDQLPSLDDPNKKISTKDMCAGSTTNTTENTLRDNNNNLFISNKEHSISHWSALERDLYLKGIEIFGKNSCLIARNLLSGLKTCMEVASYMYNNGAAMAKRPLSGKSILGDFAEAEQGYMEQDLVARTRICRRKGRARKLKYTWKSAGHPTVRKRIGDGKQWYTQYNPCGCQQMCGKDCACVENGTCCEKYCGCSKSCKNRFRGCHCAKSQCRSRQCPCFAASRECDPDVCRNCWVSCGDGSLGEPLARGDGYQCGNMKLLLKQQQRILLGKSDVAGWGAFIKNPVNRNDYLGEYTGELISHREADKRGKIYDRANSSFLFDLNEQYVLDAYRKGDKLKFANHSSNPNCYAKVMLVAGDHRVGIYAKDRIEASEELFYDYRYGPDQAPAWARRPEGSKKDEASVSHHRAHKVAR

Assay [3] addresses OsEMF2b (E. coli two-hybrid fusion) (Oryza sativa).

For “OsEMF2b (E. coli two-hybrid fusion) (Oryza sativa)”, the binding entry in assay [1] and in assay [2] was “no binding” throughout.

B1: OsFIE2 (E. coli two-hybrid fusion) (protein, UniProt Q6ZJX0 1-376)
chain: MAKLGPGQGLGCEAAVGLLAPSRKREYKACNKLTEGKRPLYAIGFNFLDFHYYEVFATVGGNRVTTYSCLKDGNFAILQAYIDEDKDESFYTLSWACDLDGTPLLVAAGSNGIIRVINCATEKLLKTFVGHGDSINEIRTQALKPSLIISASKDESVRLWNVHTGICILIFAGAGGHRNEVLSVDFHPSDIYRIASCGMDNTVKIWSMKEFWPYVEQSFTWTDLPSKFPTKYVQFPVLVAVVHSNYVDCTRWLGDFILSKSVDNEIVLWEPKTKEQSPGEGSIDILQKYPVPECDIWFIKFSCDFHFNQLAIGNREGKVFVWEVQSSPPVLTARLTNPQCKSAIRQTAVSFDGSTILACSEDGSIWRWDEVDHPKA
Turning to B1, the binding entry in assay [3] is reported as “no binding”.
